# According to the supplement of paper PMC8104966:
# Where “and” joins values, the source holds several entries; their conditions need not be identical. Identical values can stand only once. The list shows a part of the results. Single values are uncertain here, since repeats match poorly.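 U2OS cells carrying ACE2 were mixed with U2OS cells carrying full-length spike, and fusion was scored by imaging as the share of nuclei showing both cell types' fluorescent markers. A compound counts as an inhibitory hit when it is non-toxic and its fusion z-score falls below -3, meaning more than three standard deviations below the plate's DMSO wells.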
# Test system: U2OS ACE2 x SARS-CoV-2 spike co-culture
# Experiment: cell-cell fusion (fraction fused) z-score vs plate DMSO control; higher = more fusion
# Details: 30 µM; 5 h; toxicity class: non-toxic, passed QC
row,SMILES,cell-cell fusion (z-score)
1,CN1CCC(C(=O)c2cccc(NC(=O)c3c(F)cc(F)cc3F)n2)CC1 [Lasmiditan],inactive: 3.2
2,C[C@@H]1CC2C3CCC4=CC(=O)C=C[C@]4(C)[C@@]3(F)[C@@H](O)C[C@]2(C)[C@@]1(O)C(=O)CO (stereo partly drawn),inactive: 1.18
3,CC(C)NC[C@H](O)COc1ccc(CC(N)=O)cc1 [S(-)-Atenolol],inactive: 1.99
4,CN(c1ncccc1CNc1nc(Nc2ccc3c(c2)CC(=O)N3)ncc1C(F)(F)F)S(C)(=O)=O.O=S(=O)(O)c1ccccc1,active: -3.53
5,O=S(=O)(O)NC1CCCCC1,inactive: 0.812
6,NC(=O)CN1CC(O)CC1=O (stereo not drawn) [Oxiracetam],inactive: 2.26
7,C[C@]12CC[C@@H]3c4ccc(O)cc4CC[C@H]3[C@@H]1CCC2=O [Estrone],inactive: 2.95
8,COc1ccc(-n2c(SCc3nc(-c4ccc(C)cc4)no3)nnc2-c2ccncc2)cc1,inactive: 0.0715
9,[N-]=[N+]=Nc1ccc(C(=O)CSC[C@H](NC(=O)CC[C@H](N)C(=O)O)C(=O)NCC(=O)O)cc1 [S-(p-Azidophenacyl)glutathione],inactive: 1.44
10,Cl.Cl.O=C1c2c(O)ccc(O)c2C(=O)c2c(NCCNCCO)ccc(NCCNCCO)c21 [Mitoxantrone Hydrochloride],inactive: 2.02
11,CC[C@@H](CO)NC(=O)[C@@H]1C=C2c3cccc4[nH]cc(c34)C[C@H]2N(C)C1.O=C(O)/C=C\C(=O)O,inactive: -1.09
12,O=C([O-])CC(O)(CC(=O)[O-])C(=O)[O-].O=C([O-])CC(O)(CC(=O)[O-])C(=O)[O-].[Bi+3].[K+].[K+].[K+] [Gastrodenol],inactive: 1.71
13,O=C([O-])C[C@H](O)C[C@H](O)/C=C/c1c(C2CC2)nc2ccccc2c1-c1ccc(F)cc1.O=C([O-])C[C@H](O)C[C@H](O)/C=C/c1c(C2CC2)nc2ccccc2c1-c1ccc(F)cc1.[Ca+2] [Pitavastatin calcium],inactive: -0.0101
14,O=C(O)c1nc2cc(Cl)c(Cl)cc2nc1O,inactive: -0.161
15,CC(=O)S[C@@H]1CC2=CC(=O)CC[C@]2(C)[C@H]2CC[C@@]3(C)[C@@H](CC[C@@]34CCC(=O)O4)C12 (stereo partly drawn),inactive: 3.21
16,CC(=O)N[C@@H]1[C@@H](O)[C@H](O)[C@@H](CO)O[C@H]1O,inactive: 1.88
17,C=C1CCC2[C@](C)(CO)[C@H](O)CC[C@@]2(C)[C@@H]1C/C=C1/C(=O)OC[C@H]1O (stereo partly drawn),inactive: 2.44
18,Cc1nc(NC(=O)N2CCC[C@H]2C(N)=O)sc1-c1csc(C(C)(C)C)n1,inactive: -2.76
19,O=c1[nH]c(=O)n([C@H]2C[C@H](O)C(CO)O2)cc1I (stereo partly drawn),inactive: 2.61
20,CC(=O)O.CSC(=N)NCCC[C@H](N)C(=O)O [S-Methyl-L-thiocitrulline acetate],inactive: 3.06
21,Cl.Nc1ccc(/N=N/c2ccccc2)c(N)n1,inactive: 0.943
22,CC(C)(C)c1onc(OCP(=O)(O)O)c1CC(N)C(=O)O (stereo not drawn),inactive: 2.91
23,Cc1ccc(/C(=C\CN2CCCC2)c2ccccn2)cc1.Cl.O [Triprolidine hydrochloride],inactive: 1.6

row,SMILES,cell-cell fusion (z-score)
1,CCC[C@@H]1C[C@@H](C(=O)N[C@@H]([C@H]2O[C@H](SC)[C@H](O)[C@@H](O)[C@H]2O)[C@H](C)Cl)N(C)C1.Cl [Clindamycin HCl],inactive: 1.96
2,c1ccc2[nH]c(-c3cscn3)nc2c1 [Thiabendazole],inactive: 3.02
3,Cc1cccc(Nc2ccncc2S(=O)(=O)NC(=O)NC(C)C)c1,inactive: 0.775
4,C[C@H](N)[C@H](O)c1cccc(O)c1.O=C(O)[C@H](O)[C@@H](O)C(=O)O [Metaraminol bitartrate],inactive: 0.397
5,Nc1cccc2c1CN(C1CCC(=O)NC1=O)C2=O (stereo not drawn) [Lenalidomide],inactive: 2.98
6,N[C@H](C(=O)O)[C@H](O)c1ccc(O)c(O)c1 [Droxidopa],inactive: 0.883
7,"O=[N+]([O-])c1cc(O)c(O)c([N+](=O)[O-])c1 [3,5-Dinitrocatechol]",inactive: 0.119
8,CC[C@H]1OC(=O)[C@H](C)[C@@H](O[C@H]2C[C@@](C)(OC)[C@@H](O)[C@H](C)O2)[C@H](C)[C@@H](O[C@@H]2O[C@H](C)C[C@H](NC)[C@H]2O)[C@](C)(O)C[C@@H](C)CN(C)[C@H](C)[C@@H](O)[C@]1(C)O.O,inactive: 0.999 and inactive: 2.37
9,COC(=O)/C(C)=C\CC12OC(C)(C)C3CC(C=C4C(=O)c5c(c(CCC(C)(C)Cl)c6c(c5OC)C5CC(C)(CCC5=C(C)C)O6)OC431)C2=O (stereo not drawn),inactive: 1.26
10,C[C@H]1O[C@H](O[C@H]2[C@H](O)[C@@H](O)[C@@H](O[C@H]3[C@H](O)[C@@H](O)C(O)O[C@@H]3CO)O[C@@H]2CO)[C@H](O)[C@@H](O)[C@@H]1N[C@H]1C=C(CO)[C@@H](O)[C@H](O)[C@H]1O (stereo partly drawn),inactive: 3.03
11,O=c1cc(-c2cccc3c2Sc2ccccc2S3)oc(N2CCOCC2)c1,inactive: -1.41 and inactive: 2.19
12,Cn1nnnc1SCC1=C(C(=O)[O-])N2C(=O)C(NC(=O)C(OC=O)c3ccccc3)C2SC1.[Na+] (stereo not drawn),inactive: 3.2
13,Cc1ccc2c(c1)CC[C@H]1CC(=O)CC[C@]21C,inactive: 2.1
14,CC(=O)Oc1ccc2c(c1)CCC1C2CC[C@]2(C)C(=O)CCC12 (stereo partly drawn),inactive: 2.55
15,COc1cc(-c2coc3cc(O[C@@H]4O[C@H](CO)[C@@H](O)[C@H](O)[C@H]4O)c(OC)c(O)c3c2=O)cc(O)c1OC,inactive: 2.77
16,COc1c(N2CCNC(C)C2)c(F)cc2c(=O)c(C(=O)O)cn(C3CC3)c12 (stereo not drawn) [Gatifloxacin],inactive: 2.52
17,CC(C)NCC(O)COc1ccc(CC(N)=O)cc1 (stereo not drawn),inactive: 0.741
18,Cc1[nH]c(=O)c(C#N)cc1-c1ccc2nccn2c1.Cl [Olprinone hydrochloride],inactive: 1.92
19,O=C(O[C@H]1C[C@H]2CC[C@@H](C1)[N+]21CCCC1)C(O)(c1ccccc1)c1ccccc1.[Cl-] [Trospium chloride],inactive: 3.67
20,Cc1c(O)c(=O)ccn1C [Deferidone],inactive: 1.51
21,CC(=O)[C@H]1CC[C@H]2[C@@H]3CCC4=CC(=O)CC[C@]4(C)[C@H]3CC[C@]12C [Progesterone],inactive: 2.46
22,C=C[C@]1(C)C[C@@H](OC(=O)CS[C@@H]2C[C@H]3CC[C@@H](C2)N3C)[C@]2(C)[C@H](C)CC[C@]3(CCC(=O)[C@H]32)[C@@H](C)[C@@H]1O [Retapamulin],inactive: 2.02
23,NC(=O)OC[C@H](N)Cc1ccccc1 [solriamfetol],inactive: 1.72

row,SMILES,cell-cell fusion (z-score)
1,O=c1ccn([C@@H]2O[C@H](CO)[C@@H](O)[C@H]2O)c(=O)[nH]1,inactive: 1.75
2,O=C1CCC(c2ccc(-n3ccnc3)cc2)=NN1 [Imazodan],inactive: 1.02
3,COc1cc(/C=C/C(=O)O)cc(OC)c1O,inactive: 1.75
4,CS(=O)(=O)O.O.O=C(O[C@H]1C[C@H]2CC3C[C@@H](C1)N2CC3=O)c1c[nH]c2ccccc12 [Dolasetron mesylate hydrate],inactive: 0.789
5,OCC(O)CN1CCN(c2ccccc2)CC1 (stereo not drawn),inactive: 0.858
6,COC(=O)c1c(C)[nH]c(C)c1C(=O)c1ccccc1Cc1ccccc1,inactive: -1.32
7,CCN(CC)CCc1nc(-c2ccccc2)no1.O=C(O)CC(O)(CC(=O)O)C(=O)O,inactive: 1.88
8,Cc1ccc(S(=O)(=O)NC(=O)NN2CCCCCC2)cc1,inactive: 0.998
9,Cc1ccc(S(=O)(=O)NC(=O)NN2CCCCCC2)cc1 [Tolazamide],inactive: 1.41
10,CO[C@@H]1[C@@H](OC(N)=O)[C@@H](O)[C@H](Oc2ccc3c([O-])c(NC(=O)c4ccc(O)c(CC=C(C)C)c4)c(=O)oc3c2C)OC1(C)C.[Na+],inactive: 2.02
11,Cl.O=C(CCCCCN1CCN(c2ccccc2-c2ccccc2)CC1)NC1CCCc2ccccc21 (stereo not drawn) [LP 12 hydrochloride hydrate],inactive: 0.015
12,Cl.O=S(=O)(c1cccc2c(Cl)cccc12)N1CCCNCC1,inactive: -1.95
13,CCc1cc(-c2n[nH]c(C)c2-c2ccc3c(c2)OCCO3)c(O)cc1O,inactive: -1.25
14,COc1cc2c(cc1OC)C(=O)OC2,inactive: 1.33
15,"Cc1cccc(C(=O)NCN2CCN(c3ccccc3C#N)CC2)c1.O=C(O)/C=C\C(=O)O [PD 168,077 maleate]",inactive: 1.2
16,CC(C)C[C@H](NC(=O)CNC(=O)c1cc(Cl)ccc1Cl)B1OC(=O)CC(CC(=O)O)(C(=O)O)O1 (stereo partly drawn),inactive: 2.93
17,CC(=O)[C@@]1(O)CCC2C3CCC4=CC(=O)CC[C@]4(C)C3CC[C@@]21C (stereo partly drawn),inactive: 0.309
18,O=C(O)c1ccccc1C(=O)Nc1ccc(S(=O)(=O)Nc2nccs2)cc1,inactive: 0.391
19,CC(C)C[C@H](N)C(=O)O [L-Leucine],inactive: 2.34
20,CC(C)C[C@H](N)C(=O)O,inactive: 2.19
21,O=S(=O)([O-])CCSSCCS(=O)(=O)[O-].[Na+].[Na+],inactive: 2.23
22,Cc1ccc(S(=O)(=O)N[C@@H](CCCCN)C(=O)CCl)cc1.Cl [Na-p-Tosyl-L-lysine chloromethyl ketone hydrochloride],inactive: 0.159
